Assay [1] concerns the target active form of RhoA (GTP-RhoA) (human (endogenous in 16HBE)) (UniProt P61586). Kind of assay: pull-down; GST-Rhotekin RBD-coated beads (EZ-Detect RhoA Activation Kit) capture GTP-RhoA from lysates of 16HBE cells transfected with Flag-ROCK2(WT or K1007R); ROCK2 found with it by western blot.
Assay [2] deals with T1, Flag-ROCK2(K1007R) (human) (UniProt O75116).
T1 sequence: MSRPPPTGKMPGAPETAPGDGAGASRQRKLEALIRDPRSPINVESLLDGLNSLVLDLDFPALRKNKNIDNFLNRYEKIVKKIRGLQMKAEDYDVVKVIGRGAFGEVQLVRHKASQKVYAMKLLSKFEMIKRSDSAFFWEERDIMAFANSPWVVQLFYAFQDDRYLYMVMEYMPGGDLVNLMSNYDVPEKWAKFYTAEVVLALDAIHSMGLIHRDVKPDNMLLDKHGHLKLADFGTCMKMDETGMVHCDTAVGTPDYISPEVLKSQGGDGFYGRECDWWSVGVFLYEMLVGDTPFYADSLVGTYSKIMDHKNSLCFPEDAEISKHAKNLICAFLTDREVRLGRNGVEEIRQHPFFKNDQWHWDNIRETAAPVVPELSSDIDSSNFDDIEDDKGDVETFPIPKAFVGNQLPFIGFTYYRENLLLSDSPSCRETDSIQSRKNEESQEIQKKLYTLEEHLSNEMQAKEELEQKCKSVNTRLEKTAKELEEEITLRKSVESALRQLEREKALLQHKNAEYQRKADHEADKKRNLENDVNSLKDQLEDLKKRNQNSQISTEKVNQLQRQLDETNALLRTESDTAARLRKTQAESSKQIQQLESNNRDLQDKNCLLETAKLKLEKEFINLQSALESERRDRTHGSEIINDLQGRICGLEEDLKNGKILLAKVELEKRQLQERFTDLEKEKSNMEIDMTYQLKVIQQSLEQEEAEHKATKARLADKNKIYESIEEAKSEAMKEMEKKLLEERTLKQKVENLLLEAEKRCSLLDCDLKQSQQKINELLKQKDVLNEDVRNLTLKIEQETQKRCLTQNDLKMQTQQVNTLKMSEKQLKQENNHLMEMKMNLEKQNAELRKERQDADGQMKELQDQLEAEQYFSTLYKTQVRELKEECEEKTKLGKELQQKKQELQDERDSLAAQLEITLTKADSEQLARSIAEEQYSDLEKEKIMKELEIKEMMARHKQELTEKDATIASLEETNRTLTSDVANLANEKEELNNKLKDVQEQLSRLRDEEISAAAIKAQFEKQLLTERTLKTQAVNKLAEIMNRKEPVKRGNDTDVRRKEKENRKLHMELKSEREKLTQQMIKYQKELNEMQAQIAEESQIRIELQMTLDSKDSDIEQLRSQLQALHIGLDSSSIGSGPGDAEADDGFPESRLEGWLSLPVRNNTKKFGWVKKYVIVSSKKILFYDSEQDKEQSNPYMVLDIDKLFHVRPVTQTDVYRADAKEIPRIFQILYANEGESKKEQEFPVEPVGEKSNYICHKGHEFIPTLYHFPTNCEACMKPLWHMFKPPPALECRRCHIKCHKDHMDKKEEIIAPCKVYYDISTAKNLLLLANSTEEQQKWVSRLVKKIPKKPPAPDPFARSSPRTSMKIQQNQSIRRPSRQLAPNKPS
Description: co-IP; Flag antibody and protein A/G agarose overnight at 4 °C; RIPA lysates of 293T cells 48 h after transfection with Myc-PIAS1 and Flag-ROCK2(WT or K1007R).

Protein sequences, listed by entry. Tags and fused reporters are not part of them.
UniProt P61586: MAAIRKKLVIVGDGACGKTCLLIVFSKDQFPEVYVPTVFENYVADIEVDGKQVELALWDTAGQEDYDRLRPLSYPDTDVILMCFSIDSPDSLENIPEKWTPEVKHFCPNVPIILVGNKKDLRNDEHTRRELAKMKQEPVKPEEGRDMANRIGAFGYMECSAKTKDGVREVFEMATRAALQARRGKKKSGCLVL
UniProt O75925: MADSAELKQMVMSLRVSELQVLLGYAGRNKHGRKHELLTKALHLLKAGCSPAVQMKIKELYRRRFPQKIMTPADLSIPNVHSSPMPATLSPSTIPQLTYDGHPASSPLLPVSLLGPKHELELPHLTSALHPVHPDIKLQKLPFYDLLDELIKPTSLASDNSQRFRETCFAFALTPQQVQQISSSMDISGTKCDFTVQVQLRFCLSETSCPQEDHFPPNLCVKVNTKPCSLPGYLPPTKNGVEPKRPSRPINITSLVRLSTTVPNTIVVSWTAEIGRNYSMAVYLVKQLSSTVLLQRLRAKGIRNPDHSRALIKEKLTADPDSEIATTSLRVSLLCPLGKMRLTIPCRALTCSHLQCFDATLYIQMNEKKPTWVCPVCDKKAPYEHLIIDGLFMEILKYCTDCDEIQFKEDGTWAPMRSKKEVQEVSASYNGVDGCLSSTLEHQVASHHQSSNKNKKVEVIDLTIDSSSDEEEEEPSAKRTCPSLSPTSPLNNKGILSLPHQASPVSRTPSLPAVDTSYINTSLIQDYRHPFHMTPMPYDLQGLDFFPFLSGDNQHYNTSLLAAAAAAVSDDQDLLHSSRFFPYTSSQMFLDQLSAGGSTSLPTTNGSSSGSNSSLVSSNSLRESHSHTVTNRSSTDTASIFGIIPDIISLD

The target of assay [3] is Flag-ROCK2(WT) (Rho-associated protein kinase 2, wild type) (human) (UniProt O75116). The description is as above.
Assay [4] addresses T1, Flag-ROCK2(K1007R) (human). Description: co-IP; Flag antibody and protein A/G agarose overnight at 4 °C; RIPA lysates of 16HBE cells transfected with HA-RhoA and Flag-ROCK2(WT or K1007R), with or without IL-13 for 6 h; blotted with HA antibody.
Assay [5] has as its target Flag-ROCK2(WT) (Rho-associated protein kinase 2, wild type) (human) (UniProt O75116). The assay is described as above.

Results are given in words; binding and its absence hold for the method and conditions named. Binding seen in cells or lysates may run through a third protein. Some results given as binding are weak or reduced against the parent protein; the word gives no strength. For some assays here: Sequences can lack the tags named with a protein.

On to “Flag-ROCK2(WT) (Rho-associated protein kinase 2, wild type) (from UniProt O75116 1-1388) (enzyme)”, for which the binding entry in assay [1] is given as “binds”.
Turning to “Myc-PIAS1 (protein inhibitor of activated STAT 1, SUMO E3 ligase) (from UniProt O75925 1-651) (enzyme)”, the binding result in assay [2] and in assay [3] was “binds” throughout.
Take HA-RhoA (from UniProt P61586 1-193): the binding result was “binds weakly” in assay [4] and “binds” in assay [5].

These data come from article PMC10314948.
